At least one peptide structure holds a part that was inferred or is arguable (an end, a ring closure or a residue). Non-standard residues stand in square brackets, D forms with d. Residues, ends and D or L forms follow the SMILES beside them. pGlu = O=C1CC[C@@H](C(=O)O)N1
Target: T1, SH3-2 domain of NCK1 (Homo sapiens, UniProt P16333)
T1 construct: To amplify the NCK1 SH3-2 domain, the primers; 10xHis tag with TEV site (vector pSF-OXB20-NH2-10HIS) (N, cleaved yes); made in house; host or cells: E. coli C43(DE3)
Assay: Isothermal titration calorimetry (ITC) binding to NCK1 SH3-2 domain
Description: Human PTP1B cDNA (NM_002827) and human NCK1 cDNA (NM 006153) were obtained (Origene, MD, USA). PTP1B Primers were designed to amplify the ORFs with added homology to the cut vector (EcoRI-digested pSF-OXB20-NH2-10HIS) in the forward primer sequence. To amplify full-length PTP1B, the primers ptp1b_FL_fwd ([…]) (SEQ ID NO: 159) and ptp1b_FL_rev ([…]) (SEQ ID NO: 160) were used. To amplify truncations of PTP1B, the following primer pairs were used: ptp1b_FL-Fwd and one of Ptplb_323stop_rev (gtgcaggaggagttcgaatt[…]) (SEQ ID NO: 161), ptp1b_344stop_rev ([…]) (SEQ ID NO: 162) or ptp1b_278stop_rev([…]) (SEQ ID NO: 163). To amplify the NCK1 SH3-2 domain, the primers ncklsh32_fwd ([…]) (SEQ ID NO: 164) and ncklsh32_rev ([…]) (SEQ ID NO: 165) were used. The amplified fragments were purified using a DNA clean-up kit according to manufacturer's instructions (QIAquick PCR purification kit, Qiagen).
To produce and purify fusion proteins, a culture was inoculated with 1% of overnight-cultured inoculum. […] Purified proteins were concentrated using ultrafiltration, and protein concentration was determined using ultraviolet-visible spectroscopy. […]
Isothermal titration calorimetry (ITC) was used to determine binding affinities for peptides against the SH3-2 domain of NCK1. […] The data were fit using analysis software provided by the manufacturer and affinity values were calculated. […]

`N=C(N)NCCC[C@H](NC(=O)[C@H](CCCCN)NC(=O)[C@@H]1CCCN1C(=O)[C@@H]1CCCN1C(=O)[C@H](CCCNC(=N)N)NC(=O)[C@@H]1CCC(=O)N1)C(N)=O` [MH044, H-Pyr-RPPKR-NH2] ([pGlu]RPPKR-NH2) was tested, and the “binding to NCK1 SH3-2 domain (in words)” value was “undetectable binding to NCK1”.
For `N=C(N)NCCC[C@H](NC(=O)[C@H](CCCCN)NC(=O)[C@@H]1CCCN1C(=O)[C@@H]1CCCN1C(=O)[C@H](CCCNC(=N)N)NC(=O)[C@@H]1CCCN1C(=O)[C@@H]1CCC(=O)N1)C(N)=O` [MH043, H-Pyr-PRPPKR-NH2] ([pGlu]PRPPKR-NH2), the “binding to NCK1 SH3-2 domain (in words)” value was “able to bind NCK1 with comparable efficiency as MID18”.

— US20260365696A1, “INHIBITORS OF PTP1B / NCK1 INTERACTION AND METHODS OF MAKING AND USING SAME” (Radella Pharmaceuticals LLC, priority 2023, published 2026)
